Experimental findings from article PMC9670795 are described below.

Amino acid sequences for entries named in this document (tags omitted).
UniProt Q8IJI4: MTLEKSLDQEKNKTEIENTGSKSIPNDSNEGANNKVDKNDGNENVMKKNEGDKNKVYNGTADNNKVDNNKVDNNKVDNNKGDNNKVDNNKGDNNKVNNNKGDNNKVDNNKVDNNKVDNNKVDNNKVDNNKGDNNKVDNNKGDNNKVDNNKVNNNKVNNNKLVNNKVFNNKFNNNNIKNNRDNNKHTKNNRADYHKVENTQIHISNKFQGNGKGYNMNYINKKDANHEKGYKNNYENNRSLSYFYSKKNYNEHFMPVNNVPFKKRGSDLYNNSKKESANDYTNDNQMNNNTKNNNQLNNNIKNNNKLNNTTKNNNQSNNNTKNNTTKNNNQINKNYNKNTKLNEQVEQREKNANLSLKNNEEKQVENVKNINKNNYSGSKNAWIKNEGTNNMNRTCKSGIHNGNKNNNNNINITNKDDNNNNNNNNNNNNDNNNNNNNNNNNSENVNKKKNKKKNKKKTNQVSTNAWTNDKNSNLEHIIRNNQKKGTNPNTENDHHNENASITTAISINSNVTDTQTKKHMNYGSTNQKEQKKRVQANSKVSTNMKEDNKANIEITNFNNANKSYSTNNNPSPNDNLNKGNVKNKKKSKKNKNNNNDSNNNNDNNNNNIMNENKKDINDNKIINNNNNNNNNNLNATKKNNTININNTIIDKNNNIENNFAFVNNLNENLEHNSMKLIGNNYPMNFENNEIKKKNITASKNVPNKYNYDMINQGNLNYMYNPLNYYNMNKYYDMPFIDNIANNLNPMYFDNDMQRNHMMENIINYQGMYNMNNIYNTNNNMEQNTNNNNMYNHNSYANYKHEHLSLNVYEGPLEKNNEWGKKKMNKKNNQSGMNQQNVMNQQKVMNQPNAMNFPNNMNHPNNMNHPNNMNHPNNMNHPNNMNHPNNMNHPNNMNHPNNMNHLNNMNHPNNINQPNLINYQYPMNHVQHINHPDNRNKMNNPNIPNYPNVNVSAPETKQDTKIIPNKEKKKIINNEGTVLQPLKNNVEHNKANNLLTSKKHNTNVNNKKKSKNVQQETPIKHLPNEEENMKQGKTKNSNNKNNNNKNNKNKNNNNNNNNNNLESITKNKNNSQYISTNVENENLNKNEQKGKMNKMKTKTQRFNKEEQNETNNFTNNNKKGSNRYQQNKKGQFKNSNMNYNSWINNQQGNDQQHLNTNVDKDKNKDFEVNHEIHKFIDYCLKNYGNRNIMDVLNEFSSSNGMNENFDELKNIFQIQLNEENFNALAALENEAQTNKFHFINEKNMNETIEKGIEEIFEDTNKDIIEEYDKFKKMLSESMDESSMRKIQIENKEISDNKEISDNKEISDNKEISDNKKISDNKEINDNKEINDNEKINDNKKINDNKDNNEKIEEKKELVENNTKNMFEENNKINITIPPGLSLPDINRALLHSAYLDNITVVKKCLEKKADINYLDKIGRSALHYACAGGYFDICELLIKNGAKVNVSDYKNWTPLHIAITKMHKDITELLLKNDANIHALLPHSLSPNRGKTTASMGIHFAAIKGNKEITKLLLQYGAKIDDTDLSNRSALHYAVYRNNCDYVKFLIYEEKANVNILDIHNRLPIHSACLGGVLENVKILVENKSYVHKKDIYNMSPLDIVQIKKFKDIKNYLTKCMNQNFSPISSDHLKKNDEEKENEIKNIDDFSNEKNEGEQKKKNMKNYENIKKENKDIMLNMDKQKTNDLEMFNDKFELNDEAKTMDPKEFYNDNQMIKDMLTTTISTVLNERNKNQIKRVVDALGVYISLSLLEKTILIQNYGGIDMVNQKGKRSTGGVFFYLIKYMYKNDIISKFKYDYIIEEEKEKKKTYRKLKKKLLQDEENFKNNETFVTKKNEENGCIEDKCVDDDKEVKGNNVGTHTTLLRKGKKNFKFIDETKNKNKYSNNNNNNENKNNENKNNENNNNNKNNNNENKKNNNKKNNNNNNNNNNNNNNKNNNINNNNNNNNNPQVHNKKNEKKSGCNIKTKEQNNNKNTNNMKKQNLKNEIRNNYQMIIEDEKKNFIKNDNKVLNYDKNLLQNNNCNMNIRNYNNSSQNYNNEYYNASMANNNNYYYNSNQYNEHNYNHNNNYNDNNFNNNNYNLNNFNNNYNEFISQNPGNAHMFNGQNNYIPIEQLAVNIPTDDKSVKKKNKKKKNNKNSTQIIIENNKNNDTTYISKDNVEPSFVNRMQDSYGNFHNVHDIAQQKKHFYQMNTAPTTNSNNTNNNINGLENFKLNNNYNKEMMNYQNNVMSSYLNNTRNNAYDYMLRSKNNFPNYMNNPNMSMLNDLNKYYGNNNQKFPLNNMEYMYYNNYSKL
UniProt Q8IIS9: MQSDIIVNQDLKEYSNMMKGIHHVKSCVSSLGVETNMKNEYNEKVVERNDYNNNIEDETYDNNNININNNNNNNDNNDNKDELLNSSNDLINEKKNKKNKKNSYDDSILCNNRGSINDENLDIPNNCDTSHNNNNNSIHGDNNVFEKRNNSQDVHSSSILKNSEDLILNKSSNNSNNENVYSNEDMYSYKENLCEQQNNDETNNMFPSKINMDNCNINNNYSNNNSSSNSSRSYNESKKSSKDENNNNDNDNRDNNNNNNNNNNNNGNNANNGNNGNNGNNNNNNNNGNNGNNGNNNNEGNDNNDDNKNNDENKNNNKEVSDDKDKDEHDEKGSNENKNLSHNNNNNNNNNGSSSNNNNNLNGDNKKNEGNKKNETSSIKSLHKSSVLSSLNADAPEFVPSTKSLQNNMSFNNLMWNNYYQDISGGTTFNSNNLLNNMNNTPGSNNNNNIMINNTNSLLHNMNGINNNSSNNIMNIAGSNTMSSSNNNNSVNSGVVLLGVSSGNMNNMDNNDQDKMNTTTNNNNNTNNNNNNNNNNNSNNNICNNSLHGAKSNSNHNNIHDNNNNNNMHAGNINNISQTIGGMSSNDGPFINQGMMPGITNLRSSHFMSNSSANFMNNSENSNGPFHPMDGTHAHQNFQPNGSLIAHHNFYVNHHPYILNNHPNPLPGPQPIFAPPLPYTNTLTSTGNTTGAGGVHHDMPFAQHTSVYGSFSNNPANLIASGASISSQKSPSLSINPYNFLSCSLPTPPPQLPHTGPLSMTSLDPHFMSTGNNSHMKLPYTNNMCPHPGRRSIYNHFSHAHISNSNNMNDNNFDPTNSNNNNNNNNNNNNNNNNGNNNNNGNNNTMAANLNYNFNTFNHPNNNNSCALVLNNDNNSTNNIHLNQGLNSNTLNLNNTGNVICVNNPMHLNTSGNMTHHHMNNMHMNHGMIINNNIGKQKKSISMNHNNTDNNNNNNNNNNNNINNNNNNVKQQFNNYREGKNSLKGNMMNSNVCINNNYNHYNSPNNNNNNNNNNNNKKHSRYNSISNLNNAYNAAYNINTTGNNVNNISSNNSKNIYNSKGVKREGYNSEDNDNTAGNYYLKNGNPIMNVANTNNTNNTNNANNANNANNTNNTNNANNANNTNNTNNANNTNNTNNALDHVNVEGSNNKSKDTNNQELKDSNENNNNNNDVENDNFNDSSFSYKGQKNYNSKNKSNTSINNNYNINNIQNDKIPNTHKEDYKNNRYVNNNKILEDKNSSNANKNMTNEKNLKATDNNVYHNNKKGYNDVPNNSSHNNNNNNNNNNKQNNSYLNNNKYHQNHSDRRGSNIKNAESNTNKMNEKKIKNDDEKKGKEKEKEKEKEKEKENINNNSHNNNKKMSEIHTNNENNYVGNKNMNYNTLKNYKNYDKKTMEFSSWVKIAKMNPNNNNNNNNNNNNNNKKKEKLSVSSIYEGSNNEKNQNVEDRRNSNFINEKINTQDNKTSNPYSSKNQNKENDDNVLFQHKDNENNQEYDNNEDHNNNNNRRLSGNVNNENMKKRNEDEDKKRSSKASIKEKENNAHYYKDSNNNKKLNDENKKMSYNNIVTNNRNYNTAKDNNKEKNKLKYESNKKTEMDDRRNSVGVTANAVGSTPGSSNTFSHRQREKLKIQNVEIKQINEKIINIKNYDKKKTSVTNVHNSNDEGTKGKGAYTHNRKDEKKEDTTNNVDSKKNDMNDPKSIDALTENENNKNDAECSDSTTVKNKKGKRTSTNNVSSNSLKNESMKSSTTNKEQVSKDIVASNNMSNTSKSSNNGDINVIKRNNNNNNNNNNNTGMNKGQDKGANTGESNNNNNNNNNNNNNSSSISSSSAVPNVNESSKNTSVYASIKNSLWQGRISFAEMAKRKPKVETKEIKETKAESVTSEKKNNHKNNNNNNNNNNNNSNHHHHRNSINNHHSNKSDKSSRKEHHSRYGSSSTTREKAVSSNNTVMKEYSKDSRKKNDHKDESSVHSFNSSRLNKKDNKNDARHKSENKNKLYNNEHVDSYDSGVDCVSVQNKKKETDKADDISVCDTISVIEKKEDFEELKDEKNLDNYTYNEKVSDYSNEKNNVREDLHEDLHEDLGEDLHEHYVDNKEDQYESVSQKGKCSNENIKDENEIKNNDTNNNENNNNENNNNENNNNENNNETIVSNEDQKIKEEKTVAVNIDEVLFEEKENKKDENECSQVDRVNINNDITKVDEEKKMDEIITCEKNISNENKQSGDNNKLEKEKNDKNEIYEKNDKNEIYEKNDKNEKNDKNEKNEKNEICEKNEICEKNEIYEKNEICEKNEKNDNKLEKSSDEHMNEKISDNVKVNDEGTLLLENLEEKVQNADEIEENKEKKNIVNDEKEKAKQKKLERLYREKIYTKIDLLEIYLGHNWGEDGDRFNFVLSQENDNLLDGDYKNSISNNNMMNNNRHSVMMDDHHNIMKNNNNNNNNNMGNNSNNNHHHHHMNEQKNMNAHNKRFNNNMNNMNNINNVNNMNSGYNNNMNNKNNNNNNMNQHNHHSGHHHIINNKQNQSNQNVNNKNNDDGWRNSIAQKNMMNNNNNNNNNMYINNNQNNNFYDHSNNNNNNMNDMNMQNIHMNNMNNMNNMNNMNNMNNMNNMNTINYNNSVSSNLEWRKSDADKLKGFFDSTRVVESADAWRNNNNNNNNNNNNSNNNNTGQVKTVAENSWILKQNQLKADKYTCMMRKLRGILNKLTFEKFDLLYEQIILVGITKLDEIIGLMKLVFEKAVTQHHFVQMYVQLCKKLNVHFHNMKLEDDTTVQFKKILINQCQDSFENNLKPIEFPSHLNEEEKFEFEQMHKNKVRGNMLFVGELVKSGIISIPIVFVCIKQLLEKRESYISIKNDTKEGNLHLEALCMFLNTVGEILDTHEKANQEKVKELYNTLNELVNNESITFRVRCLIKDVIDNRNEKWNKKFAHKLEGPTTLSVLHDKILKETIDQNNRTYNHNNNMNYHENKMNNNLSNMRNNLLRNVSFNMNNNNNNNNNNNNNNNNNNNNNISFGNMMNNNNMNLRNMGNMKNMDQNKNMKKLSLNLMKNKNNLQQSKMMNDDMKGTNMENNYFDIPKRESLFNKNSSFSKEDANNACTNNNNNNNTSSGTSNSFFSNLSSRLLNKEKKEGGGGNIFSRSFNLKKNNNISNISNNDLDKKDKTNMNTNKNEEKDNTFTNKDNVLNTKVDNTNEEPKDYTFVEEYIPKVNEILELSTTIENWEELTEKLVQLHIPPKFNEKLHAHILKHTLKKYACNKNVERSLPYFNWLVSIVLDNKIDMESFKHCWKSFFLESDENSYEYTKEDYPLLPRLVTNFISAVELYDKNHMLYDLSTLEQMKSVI

No constants are given. Whether binding was seen depends on the method and setting. In cells and extracts the contact can be indirect. These calls come from enrichment with a bait or labelling near it, and not all partners need be listed. Sequences can lack the tags named with a protein.

Sequences and labels used below:
T1: Pf-DDX5 (ATP-dependent RNA helicase DDX5, Pf3D7_1445900), tagged with 2xFKBP and GFP (P. falciparum 3D7) (UniProt Q8IL13)
T1 sequence: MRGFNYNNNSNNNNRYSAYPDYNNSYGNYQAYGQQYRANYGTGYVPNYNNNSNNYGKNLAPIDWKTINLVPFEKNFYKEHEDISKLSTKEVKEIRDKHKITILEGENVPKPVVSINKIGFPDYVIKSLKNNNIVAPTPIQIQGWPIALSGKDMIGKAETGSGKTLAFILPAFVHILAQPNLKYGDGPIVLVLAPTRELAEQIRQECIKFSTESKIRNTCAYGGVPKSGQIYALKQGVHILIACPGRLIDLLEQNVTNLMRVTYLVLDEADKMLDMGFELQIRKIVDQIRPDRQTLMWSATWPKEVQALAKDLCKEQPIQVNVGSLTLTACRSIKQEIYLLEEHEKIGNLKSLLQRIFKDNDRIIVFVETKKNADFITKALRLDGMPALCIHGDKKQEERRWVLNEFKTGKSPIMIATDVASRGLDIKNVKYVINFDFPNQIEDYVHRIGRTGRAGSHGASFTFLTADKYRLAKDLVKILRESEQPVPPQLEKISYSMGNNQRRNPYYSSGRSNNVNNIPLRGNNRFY

B1: pre-mRNA–processing factor (Pf3D7_1110200.1) (protein, UniProt Q8IIR0 1-1329)
chain: MDLTSLKNEMTKNIKNDVFKNMSINNNKVKYEPFGKPPPGYIPGKGRGVTGFSGGVSRDDTTDDKDKNDYSDFNYDEFHGYSESLFKDTEYDEEDKEADEIYDKIDSLMDIRRKSRRENKLKEEISKMRATKPTITQQFGDLKKNLANVTIEEWESIPTVLQYSSKQKQKKVQKNYLPAPDSLIMSRINESNIHLNFNNSASSQSGHKTPIGLGYQSSLGVQTPLGLRTPYGLQNSLSGLKTPLSGLQNSLSGLKTPLSGLQNSLSGLKTPLSGLQNSLSGLKTPLSGLQTPYMRNPSSLFGMDTPLINNNIKSNMSISGLNTPFTLSGYNTPLSASNVSGYNTPLFNNTHKLSLNDLGEARGTVLSVKLDELIDNVEGQTVIDPKGYLTNLNASSLINDADIADINKARSLLKSVISTNPKHGPGWIAAARIEELAQRKDKAKEIIMKGCVVCSKNEDIWLEAVRLEEKLSEVKIILAKAIKHIPTSVKLWLEAYKKEKNVDDKRKVLRKAIECIPNSVKLWKEAISLENENNAYILLKRAVECIPQSIEMWIALARLCTYTEAQKVLNEARKKIPTSAEIWINASQLEEKQGNIKMVDIIIKRCIENLSSKNVIFDRDKWIKFAEECEQSKFTHTCESIIRNTMHIGVETLNKKRIYKQDAQNCIHNKSIHTARTLYNEALKIFKTKKSLWLALANLELTHGKREDVDEVLHRAVQSCPHSSVLWLMLAKQKWLNNEIDKAREILAESFIHNQNTEEISLAAIKLERENNEFDRARFLLKKSRVQCNTPKIWMQSVQLERLLRNYKEAKMLAHEALKIHKHFDKLYMIAGQIELEMYKYSNDTNININITSHKTYIKNGCDDTKSDDSKDKNINTKRTTSPKHYTTTNNNDDDANNDSSCTSNNFHNKQNGDNKNINVNNKKEEFINITNDPYKNAQNIYEEGLKYCASSINLWICAIDLQIEKKNYTGARALTEKAKIKIKYLNSFNNNSHILKSKEIIETNEQNYDTQDDEYNNLNKNMDGSKSVNNTTASNISKSKNELEKKSSVNNNAYIKIIENYDLLWLKLIEIELCCNNKNLNPIISEALKECPSSGILWSKAIELENKNLQNSKSVSAFNHCGNNAYVILTVAKLFWVNFKIQKARKWFYRVINLNPHFGDGWATFLAFEIDQQNEINQKDIINKCIKAEPNRGYLWNKITKRVENWRLKYPQKLYKYIKDIYPHVLNKKISDPIWNIITDENADTSFLLTNQENDKEKKDQGNESVDDEKDYEKETNNNVEEDPEKDSKEQGKRKSKEKILNEKDTTKNKRKDISTNEDEKDRKKKKK
B2: protein with unknown function Pf3D7_1455300.1 (protein, UniProt Q8IKS5 1-610)
chain: MDKCRNSSRKYKLSAGDSTFGKPTVRGSVTNDNLSDDGEIEFEGWVEFVTKNGNDDTNLSQEKKKRHGRNRNHTVSLCNIAKDDIVFNKSRKRDKQSRRDSKKGNEMNTDYMYSNNNNNIYANYVFKQPNEISNGSILYTLRNNNNNNNYNNNNNVVTPLYINNQTKTNDNLINILSPNYVDPAPPIVLKNQQVLPQLYIRQPPTVIVTNEPRPPLVINPPPANIIFKNKSPQPIYVNSTRPNIIIKNDPPVVQNPINMDTTPVQLDMPTENITINKETINYPYVMNIKKDSFLDNRNVYLKGSVSSTNASVSPTNVIYVESNNNNNNMNDINQQNIPNFYMMNNNQTPHLHQTTNAYATIPPINNHQIQTQPTNTVQYIQPNYEQVITQVDQNRNLFNQQLVGSTVMQNMTPQGVNTLNYPATINTVCVPQTISNTNNTTSQQVQYIPQTQAYAPYNNVQNTTIYERNYVPQIAQNTMTNNVVQQYVPSTTTMVQENVQNTPSSQYRILVPNNDNIQSPNIIRHYNNISNTKNNVNKAIVQPTYNSSEILPSCSPSGCASRNKVTHVQNVRRNSYINPHSHSMHECPKKVQIIARPMHDQNLRTYSLCR
B3: protein with unknown function Pf3D7_0819600.1 (protein, UniProt Q8IB31 1-277)
chain: MYVTTGTNDILLTINDYVNKETASYQLTDISNNTLISEIIEKIKVLKNYTYSSTDLVLYFARVECKLSEKLSTYNKSNRKTIKLELYLSKLITINVRTLQSCGTGTSRCIPFWSFCFRQNIKIKIIDTCEVRVLKQKIYNLTDESTSIPVENIVLLYKGAPLNNFLTLKESELIDNCRIDYFVPLCYIYKKKKEESDEDEDENEEKLKEHTKSEDKKVDTQQNENVKSENVNNENVKNENVNNENVKNENVNNENVNNENVNIENVKNDNNDNAKKC
B4: nucleosome assembly protein (Pf3D7_0919000) (protein, UniProt Q8I2W3 1-269)
chain: MKRDRSENSVENTDPKHTKIENDDPLMPFMQDFEDIQKDIEQLDIKCAHEQMNIQKQYDEKKKPLFEKRDEIIQKIPGFWANTLRKHPALSDIVPEDIDILNHLVKLDLKDNMDNNGSYKITFIFGEKAKEFMEPLTLVKHVTFDNNQEKVVECTRIKWKEGKNPIAAVTHNRSDLDNEIPKWSIFEWFTTDELQDKPDVGELIRREIWHNPLSYYLGLEEFDEFDDDFDEEFDDDDDDDDDDDDDDDDDDKDDDLDGDDDGNNDDNDD
B5: chromatin remodeling protein (Pf3D7_1104200.1) (protein, UniProt Q8IIW0 1-1426)
chain: MFRNVRDYFKSSNDVNEEKKNDVGSVHMDENTENYDKESNGFVHRDFNNGINKEDKDYEELDLKKLNVSSNDITKEGNNMNENMMNRKLNSSVEDGNDNNHDKNVHRNIGNDTHVSYDDKRKSYLDNNEENSEQMNDNMKKRKLNEISYDNNEEDEFRNKKDDSMEMNDKEKGSTNMSTINDNNNNHNDDSNNHNDDSNNHNDDSNNHNDDSNNHNDDNNNHNEDNNNHNDDNNNHNDDNNYNSEEKPNYLQEKLEQLLAQTKRYTEKLAGQRLKMNAQMKSSKKGRCLLTEKEEDFMLLKDANEEDEAIILKQPMNINGTMKPYQLEGLNWLYQLYRFKINGILADEMGLGKTLQTISLLCYLRFNKNIKKKSIIICPRSTLDNWYEEIKKWCTPMKAFKYYGNKDQRKELNRNLLHSDFDVLLTTYEIVIKDKSALYDIDWFFLVIDEAHRIKNEKSVLSSSVRFLRSENRLLITGTPLHNNLKELWSLLNFLMPKIFDNSEEFDNLFNISKISTNDNKQSEIITQLHTILKPFMLRRLKVEVEQSLPPKREIYIFVGMSKLQKKLYSDILSKNIDVLNAMTGSKNQMLNILMQLRKCCNHPYLFDGIEEPPYIEGNHLIETSGKMSLLDKLLPRLKKENSRVLLFSQMTRLLDIIDDYCRWKNYPYLRIDGSTPGDERQVRINQFNEPNSKYFIFLLSTRAGGIGINLTTADIVILFDSDYNPQMDIQAMDRAHRIGQKKRVIVYRFVTQNSVEEKIVERAAKKLKLDSLIIQKGKLNLNSAKENNKQELHDILNFGAPEVYKTQDISSISDEDIDIILADAEKRTIEIEKKLKNLENIFDLTNISLDGGLNMYNDLEKEASEESTDEEDSSGSGEETILEGSGNNDIVEENGVKKKKKKKKNINKIRRTIKKFLKNNKKNMTFLDLGERKSKWKVMNTACGRTNKKKMVLHGWRAEARGGHDFQFFNVEKLDELEKIEDKWNNYMINQEKINVLIEAQNEEKDYEKIVTFNEFLDKHAKNIYQIITLINPSLFDEHKDTKEEELLKMGTHSDVNSNDKDYKRSSFMSTDYNMKTTYLNNINSNNNNNNNNINDNVGTSINTIDDQQYFKKKILSLFESGKKLQMIKFKDRNIKNCYTQVANFIKKNFPEKINNNDTNNNKSTTLKNKKLKKGKQTKNVNVEKDIASVDIEKIKLQKQELMKQGFAKWNKAEFNKLMSGLIIYGTNEVEYIYEKYFSNSKKSMEDIKAYLTVFFRKYDQIKGGVRLFDKIKRSDLQKKIIEEENDMITEFVEKQLSEGVDSIEKLQLPSNLRYDFMEKREVLNITEEVKTENEENVLSNEELAYYDRENKILLWLLYQQGVVQIKNIHILTPYYWPEAYNFFKYATTPFENVEYRCRLIVDAIAELYAKKENVPLNNKDKRRI

The target of one test is T1, Pf-DDX5 (ATP-dependent RNA helicase DDX5, Pf3D7_1445900), tagged with 2xFKBP and GFP (P. falciparum 3D7). Put plainly: affinity purification with mass spectrometry; GFP-Trap beads on nuclear extracts of 3% formaldehyde cross-linked parasites at 18 hpi; Benzonase in the lysis buffer; 150 mM NaCl, 4°C overnight; on-bead digestion, label-free quantitative LC-MS/MS against GFP-tagged Pf3D7_1423700 as control; n = 5.
B1: the binding entry is “binds”.
The same measure, in the same setting: the value for B2 was “binds”.
On the same count and under the same terms, with B3 the entry was “binds”.
Still for that read-out and setting: with B4 the entry was “binds”; with B5, “binds”.

A further test shares this target. The test is described as above. This is another data set of the same source.
Consider “PHAX domain–containing protein Pf3D7_1021900 (from UniProt Q8IJI4 1-2290)”, for which the binding result was “binds”.
Still for that read-out and setting: the value for “polyadenylate-binding protein (Pf3D7_1107300.1) (from UniProt Q8IIS9 1-3334)” was “binds”.
Consider histone variant H2A.Z, for which the binding result is given as “binds”.
“protein with unknown functions Pf3D7_0704300 (from UniProt A0A143ZVW7 1-1852)”: the binding result is “binds”.
